Measurements as given in PubChem BioAssay AID602313 (National Center for Advancing Translational Sciences (NCATS), 2012).
Hit rate of the full screen: of about 390,000 compounds, about 760 (0.19%) were called active. This list was built around the results that the source calls inconclusive (neither active nor inactive); the mix of calls is not that of the screen. The call rests on the fitted dose curve; in most records, active means well fitted inhibition curve with a large enough effect; inconclusive means small, poorly fitted or top-dose-only effect; inactive means flat fitted curve, though single readings scatter. A potency beside an inconclusive call is a rough fit, not a confirmed value.

Test: qHTS for Inhibitors of Vif-A3F Interactions: qHTS; further: nearly all actives have a fitted effect of over 65% in size
Details: HeLa A3F-eYFP + Vif (tagged APOBEC3F with the HIV-1 protein that degrades it), YFP fluorescence increase; series mostly up to 46.1 µM
In short: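 HeLa cells stably expressing Vif plus C-terminally eYFP-tagged A3F were seeded, incubated overnight at 37 deg C, dosed with compound, incubated overnight again at 37 deg C. Yellow fluorescence (Ex 488/Em 500-530) reported blocked Vif-mediated A3F-eYFP degradation.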
Potency means the concentration at half of the fitted maximal effect.

| SMILES | Potency |
| --- | --- |
| Cc1ccc2c(c1)C(c1ccc(F)cc1)N(C(=O)COc1ccc(Cl)cc1Cl)CC(=O)N2 (stereo not drawn) | inactive |
| C=CCn1c(SCN2C(=O)c3ccccc3C2=O)nc2ccc(Cl)cc2c1=O | inconclusive: 35.5 µM [inhibitor, single point] |
| COc1ccc(-c2cc(-c3cc(C)ccc3O)[nH]n2)cc1 | inconclusive: 15.8 µM [inhibitor, partial curve, poor fit] |
| COc1ccc(N)c2c1C(=O)c1ccccc1C2=O | inactive |
| CCOc1ccc2c(c1)S/C(=C\c1cccs1)C(=O)N2 | inconclusive: 22.4 µM [inhibitor, partial curve, poor fit] |
| CCOc1cc(/C=C\[N+](=O)[O-])ccc1OCC(=O)N1CCOCC1 | inconclusive: 6.31 µM [inhibitor, single point] |
| C=C(CC1([C@@H](NP(=O)(c2ccccc2)c2ccccc2)[C@H]2C[C@@H]2CCCC)CC1)c1ccccc1 | inconclusive: 25.1 µM [inhibitor, single point] |
| O=C(N/C=C/c1ccco1)OCc1ccccc1 | inconclusive: 1.78 µM [inhibitor, full curve, poor fit] |
| CC(=O)c1c(C)n([O-])c2ccc(C)cc2[n+]1=O | inconclusive: 6.31 µM [inhibitor, single point] |
| CCN(CCNC(=O)C1CCN(Cc2nc(-c3cccc(Cl)c3)oc2C)CC1)c1ccccc1 | inactive |
| C(=N\Nc1ncnc2ccccc12)/c1ccccc1 | inconclusive: 35.5 µM [inhibitor, single point] |
| c1ccc(-n2cnc3cc(NCc4ccccn4)ccc32)cc1 | inactive |
| O=C(N/N=C/c1cn(-c2cccs2)nc1-c1ccccc1)c1ccccc1Br | inactive |
| CCOC(=O)CN1C(=O)C2Cc3ccccc3CN2C1=S (stereo not drawn) | inactive |
| CCOc1cccc2cc(C(=O)NCc3ccccc3)c(=N)oc12 | inconclusive: 11.2 µM [inhibitor, partial curve, poor fit] |
| Cc1cc(C)c(S(=O)(=O)/N=C2/C=C(SCC(=O)O)C(=O)c3ccccc32)cc1C | inconclusive: 15.8 µM [inhibitor, partial curve, poor fit] |
| CC(=O)c1c(C)[nH]c(C(=O)NCCc2ccccc2)c1C | inactive |
| Cc1cc2n(n1)SC(Nc1ccccc1)N2 (stereo not drawn) | inactive |
| CSc1cccc(NC(=S)N(C(C)C)C(C)c2ccccn2)c1 (stereo not drawn) | inconclusive: 31.6 µM [inhibitor, single point] |
| COc1ccc(NC(=O)CSc2nc(C)cs2)cc1 | inconclusive: 14.1 µM [inhibitor, partial curve, poor fit] |
| CC(=O)NC(C)c1cc(Cl)c2cccnc2c1O (stereo not drawn) | inconclusive: 6.31 µM [inhibitor, single point] |
| Cc1ccc(-c2nn(-c3cccc(F)c3)cc2CN(Cc2nccn2C)C(C)C)o1 | inconclusive: 3.98 µM [inhibitor, partial curve, poor fit] |

Looked up above.
Potency, O=C(N/C=C/c1ccco1)OCc1ccccc1 is entered as inconclusive: 1.78 µM [inhibitor, full curve, poor fit]
Potency, CCN(CCNC(=O)C1CCN(Cc2nc(-c3cccc(Cl)c3)oc2C)CC1)c1ccccc1 is entered as inactive
Potency, O=C(N/N=C/c1cn(-c2cccs2)nc1-c1ccccc1)c1ccccc1Br is entered as inactive

(list continues)

| SMILES | Potency |
| --- | --- |
| Cc1cccc2sc(NNC(=O)c3ccc(S(=O)(=O)N4CCCC(C)C4)cc3)nc12 (stereo not drawn) | inconclusive: 35.5 µM [inhibitor, single point] |
| C/C(=N/NC(=O)c1sc(NS(=O)(=O)c2ccccc2)nc1C)c1sc(N)nc1C | inconclusive: 35.5 µM [inhibitor, single point] |
| CCS(=O)(=O)Nc1cccc(C2=NN(S(C)(=O)=O)C(c3cccs3)C2)c1 (stereo not drawn) | inconclusive: 15.8 µM [inhibitor, partial curve, poor fit] |
| CC(C)=CCc1c(O)ccc2c1OC(c1ccc(O)c(O)c1)CC2=O (stereo not drawn) | inactive |
| O=C(Cn1cnc2ccccc21)c1ccccc1 | inconclusive: 6.31 µM [inhibitor, single point] |
| O=C(NC(=S)Nc1nc2ccc(F)cc2s1)c1ccco1 | inconclusive: 7.94 µM [inhibitor, partial curve, poor fit] |
| Cc1ccc(N2CC(NC(=O)c3ccc(S(=O)(=O)N4CCCC4)cc3)CC2=O)cc1C (stereo not drawn) | inactive |
| CC1=NN2C(=N)/C(=C\c3ccc(SCc4ccccc4)o3)C(=O)N=C2S1 | inconclusive: 10 µM [inhibitor, partial curve, poor fit] |
| Cc1cccc(C)c1-c1ccc(CN2C(CC(C)C)C(=O)N(Cc3cn(CC4CCCCC4)nn3)CCS2(=O)=O)cc1 (stereo not drawn) | inconclusive: 3.55 µM [inhibitor, single point] |
| CCCCCSc1ncnc2c1sc1nc(N3CCOCC3)c3c(c12)CCCC3 | inactive |
| c1ccc(Nc2nc3ccccc3n3nnnc23)cc1 | inconclusive: 22.4 µM [inhibitor, partial curve, poor fit] |
| CCCCOC(=S)NC(=O)c1sc2ccccc2c1Cl | inconclusive: 5.62 µM [inhibitor, single point] |
| Cc1cc(C(=O)N/N=C/c2sc(N3CCOCC3)nc2-c2ccccc2)c(C)o1 | inconclusive: 35.5 µM [inhibitor, single point] |
| O=C(N/N=C/c1cc2c(cc1Cl)OCO2)c1cc(-c2ccccc2)n[nH]1 | inactive |
| CCOc1ccc(-c2nnc(SCC(=O)Nc3cccc(C#N)c3)o2)cc1 | inactive |
| CCN(CC)c1ccc2cc(-c3nc4sc5c(c4c(=O)[nH]3)CCC(C(C)(C)C)C5)c(=O)oc2c1 (stereo not drawn) | inconclusive: 0.891 µM [inhibitor, partial curve, poor fit] |
| CCN1CCN(Cc2c(O)ccc3oc(C)c(C(=O)Nc4cccc(C(F)(F)F)c4)c23)CC1 | inactive |
| Cc1cccc(-c2ncc(CN3CCCC(CO)(Cc4ccccc4C)C3)cn2)c1 (stereo not drawn) | inconclusive: 35.5 µM [inhibitor, single point] |
| CCOc1ccc(NC(=O)c2ccc(Br)o2)c([N+](=O)[O-])c1 | inconclusive: 22.4 µM [inhibitor, single point] |
| CN(c1ccccc1)S(=O)(=O)c1cccc(NC(=O)C2=NNC(=O)CC2)c1 | inconclusive: 10 µM [inhibitor, partial curve, poor fit] |
| C=CCN(c1ccccc1)S(=O)(=O)c1ccc(Cl)c(C(=O)OCC(=O)c2[nH]c(C)c(C(C)=O)c2C)c1 | inconclusive: 12.6 µM [inhibitor, single point] |
